Test results reported in patent US20220242950A1.
These are yes or no findings as the source states them, for the method shown. Some entries that bind do so weakly or less than the wild type.

What was measured:
[1] = biological target: recombinant mf IL1RAP aa21-367 (cynomolgus monkey (Macaca fascicularis)); assay: conclusion of Example 10
[2] = biological target: recombinant mf IL1RAP aa21-367 (cynomolgus monkey (Macaca fascicularis)); assay: cross reactivity ELISA
[3] = biological target: pig IL1RAP (pig (Sus scrofa)); assay: cross reactivity ELISA
[4] = biological target: recombinant mf IL1RAP aa21-367 (cynomolgus monkey (Macaca fascicularis)); assay: indirect ELISA on coated IL1RAP, goat anti-human antibody-alkaline phosphatase, absorbance at 405 nm
[5] = biological target: pig IL1RAP (pig (Sus scrofa)); assay: as above

binding [1] | binding [2] | binding [3] | binding [4] | binding [5] | Binder
binds | binds | binds | binds | binds | chimeric 48D2 (antibody, V domains shown, not shown: a dimerising Fc or GST) VH: QEQLEESGGGLVKPGGSLTLTCTVSGPSLSHFDITWVRQAPGSGLEWIGTISPGVSTYYASWAKSRSTITSNTNLNTVTLKMTSLTAADTATYFCARGGVGSSWKAFDLWGPGTLVTISS VL: APVLTQTPASVEVAVGGTVTIKCQASESISTALAWYQQKPGQPPKLLIYKASTLPSGVSSRFKGSGSGTEFALTISDLECDDAATYYCQQGFSSGNVHNAFGGGTEVVVKR
– | binds | binds | binds | binds | h48D2 VH5.GL:VL4 (antibody, human IgG1, kappa, L234A L235A, V domains shown) VH: QEQLEESGGGLVKPGGTLSLTCTVSGPSLSHFDITWIRQPPGKGLEWIGTISPGVSTYYASWAKSRVTISVDTSLNTVSLKLSSVTAADTATYFCARGGVGSSWKAFDLWGPGTLVTISS VL: ELVMTQSPSSVSASVGDRVTITCQASESISTALAWYQQKPGKAPKLLIYKASTLPSGVPSRFSGSGSGTDFTLTINSLQPEDFATYYCQQGFSSGNVHNAFGGGTKVEIKR
